This list was built around the results that the source calls inconclusive (neither active nor inactive); the mix of calls is not that of the screen. Active and inactive are the calls of the source.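 How the source made its calls: active means growth-lowering compounds whose fitted AC50 is at most ten times their top valid dose; inconclusive means flat fit with 30 to 70% inhibition, or unreliable fit; inactive means the rest.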
assay: growth inhibition of resistant C. albicans CaCi-8, dose response, with fluconazole, powder samples, set 10 (AID 504504); conditions: C. albicans CaCi-8 + fluconazole, Alamar Blue growth, 48 h; at 26 µM (top of the series)
Method in brief: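 assay system = fluconazole-resistant C. albicans strain CaCi-8 | input = inoculum OD600 0.00015 | buffer or medium = defined RPMI 1640 medium with MOPS, glucose, uridine | timing = 48 h at 37 °C, then dye 2 h RT | measured by = Alamar Blue fluorescence, 544/590 nm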

SMILES | activity change, negative = growth inhibition
O=C(Cn1c2ccccc2c2nc3n(c(=O)c21)CCS3)N1CCC(F)(F)CC1 | inconclusive: -7.76%
COC(=O)Cn1nc(-c2cccnc2)c2ccccc21 | inconclusive: -30.5%
O=C(Cn1c2ccc(F)cc2c2nc3n(c(=O)c21)CCS3)N1CCCC1 | inactive: 15.4%
COC(=O)n1nc(-c2ccccc2)c2ccccc21 | inactive: 11.4%

Source: PubChem BioAssay AID504504 (Broad Institute, 2011)
